Target: Cyclin-dependent kinase 1/cyclin B (Homo sapiens, UniProt P06493)
Type: protein-complex assay

## CC(C)n1cnc2c(NCc3ccccc3)nc(NCCCO)nc21 [BOHEMINE]
  IC50: 1100 nM

— ChEMBL document CHEMBL1134966 (Bioorg Med Chem Lett, 2002)
